The other results are listed elsewhere or left out. The main result of the screen is listed elsewhere. These columns were measured beside it and carry no call. The list favours compounds with an active or inconclusive main result. Potencies come from curve fits of mixed quality, noted in brackets.
Assay: qHTS Assay for Modulators of Lamin A Splicing
Details: HeLa LMNA splicing GFP/RFP minigene ratio, 48 h
Method in brief: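 S3 HeLa cells stably expressing lamin A-EGFP splicing minigene plus DsRed2, 600 cells/well, 48 h compound exposure at 37C. Laser-scanning cytometry; analysed as GFP (500-530 nm)/RFP (575-640 nm) total intensity ratio; 0.5% DMSO vehicle.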

[1] = measured here: GFP splicing reporter channel
[2] = measured here: RFP viability control channel

SMILES	AC50 [1]	AC50 [2]
COC(=O)c1ccc(OCC2c3cc(OC)c(OC)cc3CCN2C(=O)c2ccccc2C)cc1 (centres undefined)	11.2 µM [falling, partial curve]	0.0501 µM [falling, full curve, poor fit]
COc1ccccc1N1CCN(CCCCNC(=O)c2ccc3ccccc3c2)CC1	11.2 µM [falling, partial curve, poor fit]	8.91 µM [falling, partial curve, poor fit]
Cc1oc(-c2ccc(F)cc2)nc1CN(Cc1ccccn1)CC1CCCO1 (centres undefined)	0.398 µM [falling, full curve]	
COc1cc(/C=C2\SC(c3ccc(C)cc3)=NC2=O)cc(OC)c1O		6.31 µM [rising, partial curve, poor fit]
CCOc1ccc(C(=O)NCc2nnnn2-c2ccc(C)c(C)c2)cc1OCC		6.31 µM [falling, single point]
Fc1cccc(-c2cc3nc4c(c(N5CCC6(CC5)OCCO6)n3n2)CCCC4)c1	31.6 µM [rising, single point]	
Cc1cc2nc(/C(C#N)=C/c3ccncc3)[nH]c2cc1C		17.8 µM [rising, partial curve]
O=C(CN(c1ccc(Cl)cc1)S(=O)(=O)c1ccc(Cl)c([N+](=O)[O-])c1)NCCc1ccc(F)cc1	3.98 µM [rising, full curve, poor fit]	
Cc1ncc(COP(=O)(O)O)c(C=O)c1O	0.0355 µM [falling, full curve, poor fit]	
Cc1nc2cc(C(=O)NCCC3=CCCCC3)ccc2n1-c1ccc(Br)cc1	35.5 µM [falling, single point]	
COc1ccc(-c2nc3ccc([N+](=O)[O-])cc3[nH]2)cc1		11.2 µM [rising, partial curve, poor fit]
Cc1cc(C)cc(Cn2ncc(Cl)c(Cl)c2=O)c1	35.5 µM [falling, single point]	35.5 µM [falling, single point]
CCCCNC(=S)N1CCN(c2nc3ccccc3s2)CC1		0.0224 µM [falling, full curve, poor fit]
CCCC(=O)NC(NC(=S)Nc1ccc(N=Nc2ccccc2)cc1)C(Cl)(Cl)Cl (centres undefined)		7.08 µM [rising, full curve, poor fit]
O=C(CN(C(=O)Cn1nnc(-c2ccc(F)cc2)n1)C1CCCC1)NC1CCCC1		0.0398 µM [rising, full curve, poor fit]
CC(NC(=O)c1ccco1)C(c1cccs1)N1CCN(c2ccc(F)cc2)CC1 (centres undefined)		31.6 µM [rising, single point]
Cc1cc(C)n(-c2ccc(C(=O)Nc3ccc(S(=O)(=O)NCc4ccco4)cc3)cc2)n1	1.12 µM [rising, partial curve]	3.16 µM [rising, full curve]
O=C(/C=C/c1ccccc1)/C=C/c1ccccc1	35.5 µM [falling, partial curve, poor fit]	17.8 µM [rising, partial curve]
S=C(Nc1cccc(Cl)c1)Nc1cccc2cnccc12		17.8 µM [rising, single point]

SMILES	AC50 [1]	AC50 [2]
Cc1ccc(NS(=O)(=O)c2cc(C(=O)Nc3cccc([N+](=O)[O-])c3)ccc2C)cc1	35.5 µM [falling, single point]	
COCC(C)NC(=O)NC1(C(F)(F)F)Oc2ccc(Cl)cc2O1 (centres undefined)		15.8 µM [rising, single point]
Cc1c(C(=O)N2CCCc3ccccc32)oc2ccc(S(=O)(=O)N3CCOCC3)cc12		14.1 µM [rising, single point]
COc1ccccc1-n1c(C)cc(/C=C2/C(=N)N3C(=NC2=O)SN=C3S(C)(=O)=O)c1C	0.447 µM [rising, full curve, poor fit]	
CC(C)(C)NC(=O)C(c1c[nH]c2ccccc12)N(C(=O)Cn1nnc(-c2ccc(F)cc2)n1)c1cccc(O)c1 (centres undefined)		35.5 µM [rising, single point]
CC(C)(CO)NC(=O)C(c1ccccc1)c1ccccc1		35.5 µM [rising, single point]
O=C1OC(c2ccc3c(c2)OCO3)N(C(=O)c2ccc(Cl)c(Cl)c2)c2ccccc21 (centres undefined)		35.5 µM [rising, single point]
Cc1nc([N+](=O)[O-])cn1-c1nc2ccccn2c1[N+](=O)[O-]		22.4 µM [rising, partial curve, poor fit]
Clc1ccc(-c2nnc3c4ccccc4nc(N4CCOCC4)n23)cc1Cl	15.8 µM [falling, partial curve, poor fit]	
CSCC(=O)NS(=O)(=O)c1ccc(C)cc1	3.98 µM [falling, partial curve]	
Cc1ccc(CN(C(=O)c2sc3ccccc3c2Cl)C2CCS(=O)(=O)C2)cc1 (centres undefined)	35.5 µM [rising, single point]	35.5 µM [rising, partial curve]
Cc1cccc(CNc2ncnc3ccc(-c4cccnc4)cc23)c1	12.6 µM [falling, partial curve]	12.6 µM [falling, partial curve]
Cc1ccc(S(=O)(=O)Nc2ccc3c(c2)n(C)c(=O)n3C)c(C)c1	0.316 µM [falling, partial curve, poor fit]	0.355 µM [falling, full curve]
CC(C)(C)n1nnnc1C(c1cccs1)N1CCCC2(CCCCC2)C1 (centres undefined)		15.8 µM [rising, partial curve]
Cc1cccc(NC(=O)CSc2nnc([C@@H]3CCCN3C(=O)OC(C)(C)C)o2)c1C		10 µM [falling, partial curve, poor fit]
COc1ccc(N2CCN(C(=O)CN3CCN(C(c4ccccc4)c4ccccc4)CC3)CC2)cc1		35.5 µM [rising, single point]
Cn1c(Cn2cnc3ccccc32)nnc1SCc1ccccc1		10 µM [rising, partial curve]
CCOc1cc(CNc2ccc(N3CCCCC3)cc2)cc(Br)c1OCC(=O)NC(C)(C)C		35.5 µM [rising, single point]
COc1cccc(/C=N/Nc2snc(SC)c2C#N)c1	0.00501 µM [falling, full curve]	0.01 µM [falling, full curve]

A different layout for 5 compounds above.
SMILES | AC50 [1] | AC50 [2]
Clc1ccc(-c2nnc3c4ccccc4nc(N4CCOCC4)n23)cc1Cl | 15.8 µM [falling, partial curve, poor fit] | 
CSCC(=O)NS(=O)(=O)c1ccc(C)cc1 | 3.98 µM [falling, partial curve] | 
Cc1ccc(CN(C(=O)c2sc3ccccc3c2Cl)C2CCS(=O)(=O)C2)cc1 (centres undefined) | 35.5 µM [rising, single point] | 35.5 µM [rising, partial curve]
Cc1cccc(CNc2ncnc3ccc(-c4cccnc4)cc23)c1 | 12.6 µM [falling, partial curve] | 12.6 µM [falling, partial curve]
Cc1ccc(S(=O)(=O)Nc2ccc3c(c2)n(C)c(=O)n3C)c(C)c1 | 0.316 µM [falling, partial curve, poor fit] | 0.355 µM [falling, full curve]

Next part.

SMILES	AC50 [1]	AC50 [2]
CN1CCN(C(=O)c2cc3nc(-c4ccccc4)cc(C(F)(F)F)n3n2)CC1	7.08 µM [rising, partial curve]	11.2 µM [rising, partial curve]
COc1ccc(CCNC(=O)c2ccccc2N(C)S(=O)(=O)c2ccccc2)cc1	17.8 µM [rising, single point]	20 µM [rising, partial curve, poor fit]
Cc1noc(C)c1COc1cccc(C(=O)Nc2ccccc2N2CCOCC2)c1	0.891 µM [rising, partial curve, poor fit]	1.78 µM [rising, partial curve]
Cc1cccc(NC(=O)c2ccccc2OCC(=O)c2ccccc2)c1		0.794 µM [falling, single point]
Cc1cc(C(=O)OCC(=O)N2c3ccccc3NC(=O)C2(C)C)c(C)n1-c1ccccc1		11.2 µM [rising, partial curve]
Cc1ccc(C(NC(=O)N2CCCC2)C(Cl)(Cl)Cl)cc1F (centres undefined)		0.708 µM [rising, full curve, poor fit]
CCCCCCCCCCCCCC(=O)OC(C)C	0.562 µM [falling, full curve]	0.562 µM [falling, single point]
CC(O)(P(=O)(O)O)P(=O)(O)O	1.41 µM [falling, partial curve, poor fit]	1.26 µM [falling, single point]
CCNC(=S)N1CCCC(c2nc3ccc(C)cc3[nH]2)C1 (centres undefined)	0.251 µM [falling, full curve]	0.501 µM [falling, full curve]
Cc1ccc(SCC(=O)Nc2ccccc2C(=O)O)cc1		15.8 µM [rising, single point]
CCc1ccc(OCCNC(=O)c2cccs2)cc1		35.5 µM [rising, single point]
N#CC(C(=O)NC1CC1)c1nc2ccccc2nc1N1CCN(C/C=C/c2ccccc2)CC1 (centres undefined)		0.112 µM [rising, full curve, poor fit]
Cc1cccc(N2CCN(C(=O)COCc3cc(-c4ccc5c(c4)OCO5)on3)CC2)c1C	14.1 µM [rising, partial curve, poor fit]	31.6 µM [rising, single point]
O=C1c2cccnc2C(Nc2ccc(Br)cc2Br)N1Cc1cccs1 (centres undefined)	35.5 µM [falling, partial curve, poor fit]	
CCCOc1ccc(Cn2cnc3ccccc32)cc1		7.94 µM [rising, partial curve]
N#CC1=C(SCc2ccccc2)NC(=O)CC1c1ccco1 (centres undefined)	10 µM [rising, partial curve, poor fit]	
CCOC(=O)c1sc(NC(=O)CSc2nc3c(c(=O)n2-c2ccc(C)cc2)SCC3)c(C(=O)OCC)c1C	0.0562 µM [falling, full curve, poor fit]	0.0398 µM [falling, full curve]
C/C(=N\NC(=O)c1c(Br)c(C)nn1C)c1cccc(NC(=O)c2ccccc2C)c1	12.6 µM [rising, partial curve, poor fit]	10 µM [rising, partial curve]

From PubChem BioAssay AID1487 (National Center for Advancing Translational Sciences (NCATS), 2009)
